Patent publication US20250212876A1, “METHOD FOR CONTROLLING PLANT DISEASES” (SUMITOMO CHEMICAL COMPANY, LIMITED, priority 2022, published 2025)
Some entries share one result that the patent states for a list of compounds. At least one compound was matched to its structure with a doubt left.

Legend:
[1] = system: Soybean rust (Phakopsora pachyrhizi); experiment: Test Example 11: control test against soybean rust, pot test, preventive; type: in vivo; conditions: 200 ppm foliar spray, inoculation after 2 to 5 days
[2] = system: Septoria leaf blotch (Septoria tritici); experiment: Test Example 10: control test against Septoria leaf blotch, wheat pot test; type: in vivo; conditions: 200 ppm foliar spray, inoculation after 4 days
[3] = system: soybean rust fungus spores (Phakopsora pachyrhizi); experiment: Test Example 22: control test against soybean rust, spore germination in titer plate; type: cell-based; conditions: 1 ppm treated concentration; 23° C., a few hours

Row | SMILES | lesion area in treated soybean compared to the lesion area in an untreated soybean [1] [%] | lesion area in treated wheat compared to the lesion area in an untreated wheat [2] [%] | number of germinated spores compared to the number of germinated spores in an untreated group [3] [%]
1 | CC[S+]([O-])c1cccc(-c2ccc(C)c(F)c2)c1 (stereo not drawn) [compound 12] | ≤ 30 | ≤ 30 | ≤ 50
2 | CCS(=O)(=O)c1cccc(-c2ccc(Cl)cc2)c1 [compound 3] | ≤ 30 | ≤ 30 | ≤ 50
